Primary screen of a compound library

Amino acid sequences for entries named in this document (tags omitted).
UniProt E9BF75, entry or part of it: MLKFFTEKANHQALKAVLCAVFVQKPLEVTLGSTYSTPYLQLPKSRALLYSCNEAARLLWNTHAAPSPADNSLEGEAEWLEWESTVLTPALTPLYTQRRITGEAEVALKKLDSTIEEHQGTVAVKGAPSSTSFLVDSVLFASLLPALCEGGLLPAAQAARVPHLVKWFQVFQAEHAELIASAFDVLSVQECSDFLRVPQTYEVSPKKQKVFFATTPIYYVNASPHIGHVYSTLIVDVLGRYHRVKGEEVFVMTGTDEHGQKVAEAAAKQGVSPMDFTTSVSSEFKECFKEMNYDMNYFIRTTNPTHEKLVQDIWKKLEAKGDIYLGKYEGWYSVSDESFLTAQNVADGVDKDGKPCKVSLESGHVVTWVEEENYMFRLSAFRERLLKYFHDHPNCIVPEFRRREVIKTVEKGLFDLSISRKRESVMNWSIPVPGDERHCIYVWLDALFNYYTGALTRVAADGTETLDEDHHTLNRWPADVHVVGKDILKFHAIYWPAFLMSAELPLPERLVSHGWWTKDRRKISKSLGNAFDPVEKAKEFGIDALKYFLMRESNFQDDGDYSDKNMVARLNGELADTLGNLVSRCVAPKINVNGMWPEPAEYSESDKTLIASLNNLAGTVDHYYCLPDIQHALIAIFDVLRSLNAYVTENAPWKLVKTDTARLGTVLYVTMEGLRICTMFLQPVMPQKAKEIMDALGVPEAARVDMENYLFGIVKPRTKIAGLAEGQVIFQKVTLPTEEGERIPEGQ

From ChEMBL document CHEMBL3988442, “University of Dundee, Small-Polar-MMV Screening Library” (2021).

Results are percentages, as filed. The record does not define 0% and 100%; most values in the screen are far below 50% and negative numbers occur (in some assays of this library far below -100). Compounds were drawn at random from those tested, without regard to their results.

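Primary screen of methionyl-tRNA synthetase; the read-out is not stated. Target: Methionyl-tRNA synthetase (putative), Leishmania donovani (UniProt E9BF75). The test concentration is not given. Values are per cent inhibition. Size under these conditions: about 68,000 compounds, about 24 of them at 50% or above in at least one test.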

SMILES,inhibition
CC(CNC(=O)NCc1ccco1)N1CCc2sccc2C1 (stereo not shown),13.26
Clc1cnccc1N1CCC(OC2CCOCC2)CC1,14.65
CC(C)NC(=O)N1CC[C@@H](N(C)C)[C@@H]1Cc1ccncc1,13.14
COc1ccc(-c2cccc(-c3ccn(CC4COCCO4)n3)c2)nn1 (stereo not shown),15.33
Cc1cccc(CNc2nnc(C(C)C)o2)c1,2.835
COC(=O)C(NC(=O)CC(C)C)c1cc(F)ccc1F (stereo not shown),20.45
CC(=O)N1CCN2C[C@H](CO)[C@@H](c3ccccc3)[C@H]2C1,0.274
Cc1ccc2c(c1C)OCC2NCc1cccc(C#N)c1 (stereo not shown),8.239
CC(C)(CN1CCOCC1)CN1CCC(Cc2cccc(CO)c2)C1 (stereo not shown),5.363
CNC(=O)[C@H]1C[C@@H]2CN(C(=O)NC(C)C)C[C@H]1O2,3.361
CCN(C(c1cccnc1)c1ccc(F)cc1F)S(C)(=O)=O (stereo not shown),9.235
Cc1ccc(NC(=O)c2ccc(N3CCCCC3)nn2)c(Cl)c1,0.7246
COC[C@@H]1CCC[C@@]12CN(Cc1ccco1)CCO2,20.46
CC(=O)NC1(C(=O)N2CCC(Nc3cccnn3)CC2)CCCCC1,1.393
Cc1cnn(CCNCC(=O)Nc2ccc(Cl)cn2)c1,14.78
COc1cc(C)c(C(C)NC(=O)c2cccnc2N(C)C)cc1OC (stereo not shown),11.98
CCS(=O)(=O)N1CCCC2(COCCN(c3ccccn3)C2)C1 (stereo not shown),22.19
c1ccc(CO[C@H]2CC[C@H]3[C@H]2OCCN3Cc2nccs2)nc1,8.148
O=C(NC1CC1)C1CCc2nnc(-c3cccc(C(F)(F)F)c3)n21 (stereo not shown),6.857
CN(C)c1nc2c(c(N3CCC(O)CC3)n1)CN(CC1CCOC1)CC2 (stereo not shown),0.7117
COc1cccc(-n2c(C)cc(C(=O)O)c2C)c1,4.225
C[C@]1(O)CCN(Cc2cncs2)C[C@@H]1Oc1cccc(F)c1,14.34
Cc1ncsc1C(=O)N1CC(C)Sc2ccccc21 (stereo not shown),9.116
CCc1ncc(C(=O)NCCn2c(C)cc(C)nc2=O)cn1,10.84
Cc1nc2c(c(NC3CC3)n1)CCN(C(=O)C1(C#N)CC1)CC2,13.45
COCCCNC(=O)Nc1ccc(OCc2noc(C3CC3)n2)cc1,11.54
CCN(C(=O)NCc1ccccc1OC(F)F)C(C)c1cccnc1 (stereo not shown),7.625
CCc1c(C)[nH]c(C(C)(N)CC)nc1=O (stereo not shown),15.04
CC(=O)NCCNC(=O)NCCCc1cccc(F)c1,-8.741
O=S(=O)(C1CC1)N1CCC2(CCN(Cc3nccs3)CC2)CC1,-3.258
CCCNCc1ccc(-c2ccnc3[nH]ccc23)cc1,20
NS(=O)(=O)CCN1CCN(c2ccccc2O)CC1,6.137
Cc1cccn2c(CNC(C)CO)cnc12 (stereo not shown),3.125
O=C(CCSc1ccccc1)NS(=O)(=O)c1ccc2c(c1)OCCO2,-6.266
O=C(NCCc1ccccc1)NCC(O)c1cccs1 (stereo not shown),16.82
CC(C)(C)CN1CCCC2(CCN(C(=O)c3cn[nH]c3)C2)C1 (stereo not shown),27.62
CC(C)(C)S(=O)(=O)CCNC1CSCCc2ccccc21 (stereo not shown),2.787
CN(Cc1cc(C(C)(C)C)n[nH]1)C(=O)CCC(=O)NC1CCCC1,10.62
Cc1cnn(CC2CCCN2C(=O)c2nccnc2N)c1 (stereo not shown),21.55
NC(=O)N1Cc2nccn2CC(Cn2ncccc2=O)C1 (stereo not shown),11.78
COCCN1CC[C@@H](OC)[C@@H]1Cc1ccccc1,8.934
CCS(=O)(=O)N1CCC(n2nc(-c3cc(C)oc3C)ccc2=O)CC1,2.1
O=C(NCCc1ccsc1)Nc1cccnc1N1CCCC1,12.6
Cc1cccc(CN2CCc3nnc(CO)n3CC2)n1,6.397
COc1cc(NC(=O)C2CC(=O)N(c3cccc(F)c3)C2)ncn1 (stereo not shown),14.39
CC(C)N(C)S(=O)(=O)c1ccc2c(c1)CCN(C(=O)c1cnccn1)C2,22.91
CCN1CCN(c2nc(C(C)C)nc3c(C)nn(CC)c23)CC1,9.449
Cn1cc(CN2CCOC(c3cccc(-c4cncnc4)n3)C2)cn1 (stereo not shown),13.37
C/N=C1\c2cc3cc(OC)ccc3n2CCN1C,7.592
Cc1ncsc1C(=O)NCCNC(=O)Cc1cccc(F)c1,16.76
CN1CCCC2(CCN(c3cccc(C(F)(F)F)n3)C2)C1=O (stereo not shown),4.735
O=C(CCNc1ncccn1)N1CCC(Nc2cccnn2)CC1,9.218
COc1ccc(-n2ccc(C(=O)N3CCC(C(N)=O)C3)n2)cc1 (stereo not shown),6.667
Cc1sc2ncnc(N3CCCC3Cn3cccn3)c2c1C (stereo not shown),20.32
NC(=O)c1cc2c(nc1N1C[C@H]3OC(=O)N(C4CCCC4)[C@H]3C1)CCC2,17.76
Cc1cccc(-c2nccnc2C2CCCN(C)C2)c1C (stereo not shown),6.854
Cc1cc(NC(=O)CNC(C)(C)c2ccc3c(c2)OCO3)on1,8.707
CCN1CCCC1CNC(=O)CCc1cccs1 (stereo not shown),-2.892
COc1ccc(-c2nc(CN3CCOCS3(=O)=O)c(C)o2)cc1,13.66
Cc1nn(C)c(C)c1CCC(=O)N1CCCOC(Cn2cccn2)C1 (stereo not shown),18.37
Cc1ccc(-c2[nH][nH]c(=O)c2CCN)cc1,9.714
Cn1c(C(=O)NC(Cc2ccsc2)c2cccnc2)cc(=O)n(C)c1=O (stereo not shown),15.19
OC1CCN(CCCNc2nccc(C3CCCC3)n2)CC1,6.875
COc1cc(CNC(=O)COC2CCCCC2)ccc1O,10.89
CCCNC(=O)Cn1nc(C)c2cnn(C(C)(C)C)c2c1=O,4.545
Cc1cc(CNS(C)(=O)=O)ccc1N(C)C,13.97
O=C(c1n[nH]cc1Cl)N1CCOCC1,8.877
Cc1ccc(CN2C[C@@H]3CCCO[C@@H]3[C@H](NS(C)(=O)=O)C2)o1,6.667
O=C(Cc1cccs1)N1C[C@@H]2CC[C@H](C1)N(Cc1ccccn1)C2=O,5.694
CNc1cc2c(nn1)CCN(C(=O)C1CCCc3ccccc31)C2 (stereo not shown),10.8

For reference, 8 entries once more:

CCN1CCCC1CNC(=O)CCc1cccs1 (stereo not shown) read -2.892%.
NS(=O)(=O)CCN1CCN(c2ccccc2O)CC1 read 6.137%.
Cc1cnn(CC2CCCN2C(=O)c2nccnc2N)c1 (stereo not shown) read 21.55%.
Cc1cc(CNS(C)(=O)=O)ccc1N(C)C read 13.97%.
Cc1nn(C)c(C)c1CCC(=O)N1CCCOC(Cn2cccn2)C1 (stereo not shown) read 18.37%.
Cc1cc(NC(=O)CNC(C)(C)c2ccc3c(c2)OCO3)on1 read 8.707%.
O=C(Cc1cccs1)N1C[C@@H]2CC[C@H](C1)N(Cc1ccccn1)C2=O read 5.694%.
O=S(=O)(C1CC1)N1CCC2(CCN(Cc3nccs3)CC2)CC1 read -3.258%.